Measured values reported in patent publication US10786580B2, “Cholecystokinin 2 receptor targeted NIR imaging and use thereof” (On Target Laboratories, LLC, priority 2016, dated 2020).
For at least one compound, name, drawing or mass did not settle the structure.

Target: T1, CCK2R (Homo sapiens, UniProt P32239)
T1 sequence (P32239 1-447): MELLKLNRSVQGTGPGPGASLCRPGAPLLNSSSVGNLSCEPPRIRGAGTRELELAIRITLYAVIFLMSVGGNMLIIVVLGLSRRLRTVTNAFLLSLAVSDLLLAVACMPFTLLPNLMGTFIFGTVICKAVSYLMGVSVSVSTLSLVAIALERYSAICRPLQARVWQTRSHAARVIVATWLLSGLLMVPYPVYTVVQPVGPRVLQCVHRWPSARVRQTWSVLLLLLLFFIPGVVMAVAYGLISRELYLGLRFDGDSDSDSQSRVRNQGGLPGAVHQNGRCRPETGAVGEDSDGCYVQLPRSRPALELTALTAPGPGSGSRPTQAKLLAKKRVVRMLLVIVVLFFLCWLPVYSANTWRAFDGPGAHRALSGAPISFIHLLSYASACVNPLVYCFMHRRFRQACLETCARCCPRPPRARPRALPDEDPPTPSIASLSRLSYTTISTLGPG
Assay: In vitro binding of CCK2R-NIR compounds to HEK-CCK2R cells (cell bound fluorescence)
Set-up: expressed in transfected cells; host or cells: HEK (human embryonic kidney) cells, HEK-CCK2R, gift from Dr. Mark Hellmich (UTMB)
Settings: Table 1; CCK2R-positive HEK-CCK2R cancer cells, 1 h at 37° C.
Experimental: FIG. 4 depicts the binding affinities of CCK2R-NIR compounds 21, 42-44 to CCK2R. CCK2R-positive HEK-CCK2R cancer cells were incubated for 1 h at 37° C. with increasing concentrations of compounds. Media was then removed, washed with fresh media three times, and replaced with PBS. Cell bound fluorescence was assayed as using fluorometer.
CCK2R-positive HEK-CCK2R cancer cells were incubated for 1 h at 37° C. with increasing concentrations of compounds. Media was then removed, washed with fresh media three times, and replaced with PBS. Cell bound fluorescence was assayed as using fluorometer.
FIG. 13 illustrates the binding affinity of […] to CCK2R. CCK2R-positive HEK-CCK2R cancer cells were incubated for 1 h at 37° C. with increasing concentrations of compound 21. Media was then removed, washed with fresh media three times, and replaced with PBS. Cell bound fluorescence was assayed as using fluorometer. […]
HEK cells that overexpress CCK2 were seeded into a T75 flask and allowed to form a monolayer over 48 h. […] After rinsing with fresh medium (2×1.0 mL) and PBS (1×1.0 mL), cells were resuspended in PBS (1.0 mL) and cell bound fluorescence was analyzed (100,000 cells/sample) using a fluorometer (Cary, Agilent). The relative binding affinities were calculated using a plot of % cell bound fluorescence versus the log concentration of the test article using GraphPad Prism 4.

Structure (SMILES) | Kd [nM]
CC(C)(C)C(=O)CN1C(=O)[C@@H](NC(=O)Nc2cccc(C(=O)N[C@@H](CCC(=O)N[C@H](CCCNC(=N)N)C(=O)N[C@H](CC(=O)O)C(=O)N[C@H](Cc3ccc(OC4=C(/C=C/C5=[N+](CCCCS(=O)(=O)[O-])c6ccc(S(=O)(=O)O)cc6C5(C)C)CCC/C4=C\C=C4\N(CCCCS(=O)(=O)O)c5ccc(S(=O)(=O)O)cc5C4(C)C)cc3)C(=O)O)C(=O)O)c2)CN(C2CCCCC2)c2ccccc21 [Compound 44] | 2.6
CC(C)(C)C(=O)CN1C(=O)[C@@H](NC(=O)Nc2cccc(C(=O)N[C@H](CCC(=O)O)C(=O)N[C@H](Cc3ccc(OC4=C(/C=C/C5=[N+](CCCCS(=O)(=O)[O-])c6ccc(S(=O)(=O)O)cc6C5(C)C)CCC/C4=C\C=C4\N(CCCCS(=O)(=O)O)c5ccc(S(=O)(=O)O)cc5C4(C)C)cc3)C(=O)O)c2)CN(C2CCCCC2)c2ccccc21 [Compound 43] | 0.81
